These results are taken from paper PMC5688200, “Overexpression of the transcription factor NF-YC9 confers abscisic acid hypersensitivity in Arabidopsis”.

Test [1] addresses T1, ABA-…5 (ABI5) fused to the GAL4 binding domain (BD-ABI5) (Arabidopsis thaliana) (UniProt Q9SJN0).
T1 sequence: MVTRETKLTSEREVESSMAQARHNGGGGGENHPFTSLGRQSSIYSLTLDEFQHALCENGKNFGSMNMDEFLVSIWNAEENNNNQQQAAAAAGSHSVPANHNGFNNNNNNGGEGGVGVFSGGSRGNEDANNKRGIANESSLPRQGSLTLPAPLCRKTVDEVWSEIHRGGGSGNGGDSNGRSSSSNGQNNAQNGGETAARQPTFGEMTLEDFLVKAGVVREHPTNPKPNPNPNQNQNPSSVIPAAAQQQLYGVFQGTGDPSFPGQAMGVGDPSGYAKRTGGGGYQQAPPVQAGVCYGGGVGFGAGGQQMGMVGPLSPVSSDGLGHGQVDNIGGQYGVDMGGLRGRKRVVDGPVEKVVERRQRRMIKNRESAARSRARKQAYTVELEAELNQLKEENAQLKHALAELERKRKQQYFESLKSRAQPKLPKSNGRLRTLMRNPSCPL
The test can be described thus: two-hybrid; GAL4 system (Clontech), yeast strain AH109; growth on SD-4 medium (lacking Leu, Trp, His, Ade), 5-7 days at 30 °C.

For test [2], the target named is T2, ABI5-nYFP (Arabidopsis thaliana) (UniProt Q9SJN0).
T2 sequence: T1 sequence
The test can be described thus: split reporter; BiFC (split YFP) in Arabidopsis Col-0 protoplasts; confocal microscopy.

In test [3] the target is T3, ABI5-NLuc (Arabidopsis thaliana) (UniProt Q9SJN0).
T3 sequence: T1 sequence
The test can be described thus: split reporter; luciferase complementation imaging (LCI) in N. benthamiana leaves after Agrobacterium infiltration; luminescence with 0.5 mM luciferin, CCD imaging.

These are yes or no findings as the source states them, for the method shown. For part of these data: In cells and extracts the contact can be indirect. Some binding calls cover weakened binding; strength is not graded here. Sequences can lack the tags named with a protein.

B1: NF-YC9 fused with the GAL4 activation domain (AD-NF-YC9) (protein, UniProt Q8L4B2 1-231)
chain: MDQQDHGQSGAMNYGTNPYQTNPMSTTAATVAGGAAQPGQLAFHQIHQQQQQQQLAQQLQAFWENQFKEIEKTTDFKNHSLPLARIKKIMKADEDVRMISAEAPVVFARACEMFILELTLRSWNHTEENKRRTLQKNDIAAAVTRTDIFDFLVDIVPREDLRDEVLGSIPRGTVPEAAAAGYPYGYLPAGTAPIGNPGMVMGNPGGAYPPNPYMGQPMWQQQAPDQPDQEN
Turning to B1, in test [1], the binding result is “binds”.

B2: cYFP-NF-YC9 (protein, UniProt Q8L4B2 1-231)
chain: B1 chain
On to B2, for which, in test [2], the binding entry was “binds”.

B3: NF-YC9-CLuc (protein, UniProt Q8L4B2 1-231)
chain: B1 chain
For B3, in test [3], the binding result was “binds”.
